Results: the supplement of paper PMC10849652
Some of the results follow.

Chains of the proteins cited; added tags and fusions are not shown. Lines headed by an entry give the natural chain unless they say otherwise; changes in a name come on top.
UniProt O75934: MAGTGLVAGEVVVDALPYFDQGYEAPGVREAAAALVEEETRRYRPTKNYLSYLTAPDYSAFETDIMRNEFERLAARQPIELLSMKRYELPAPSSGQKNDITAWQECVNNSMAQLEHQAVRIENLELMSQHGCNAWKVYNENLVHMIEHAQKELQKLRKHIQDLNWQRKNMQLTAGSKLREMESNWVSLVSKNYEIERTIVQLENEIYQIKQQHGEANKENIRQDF
UniProt Q9H3K6: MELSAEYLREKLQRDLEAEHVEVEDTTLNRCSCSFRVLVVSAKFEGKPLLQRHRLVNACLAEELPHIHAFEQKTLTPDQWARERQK
UniProt Q4VC05, whole entry, looked up: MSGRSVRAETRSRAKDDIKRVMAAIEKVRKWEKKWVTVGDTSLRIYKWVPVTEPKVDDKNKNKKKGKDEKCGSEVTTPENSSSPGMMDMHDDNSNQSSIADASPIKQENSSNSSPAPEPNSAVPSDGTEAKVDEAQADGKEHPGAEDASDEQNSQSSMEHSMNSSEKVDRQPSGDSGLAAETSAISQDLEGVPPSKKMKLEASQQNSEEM
UniProt P15056, whole entry, looked up: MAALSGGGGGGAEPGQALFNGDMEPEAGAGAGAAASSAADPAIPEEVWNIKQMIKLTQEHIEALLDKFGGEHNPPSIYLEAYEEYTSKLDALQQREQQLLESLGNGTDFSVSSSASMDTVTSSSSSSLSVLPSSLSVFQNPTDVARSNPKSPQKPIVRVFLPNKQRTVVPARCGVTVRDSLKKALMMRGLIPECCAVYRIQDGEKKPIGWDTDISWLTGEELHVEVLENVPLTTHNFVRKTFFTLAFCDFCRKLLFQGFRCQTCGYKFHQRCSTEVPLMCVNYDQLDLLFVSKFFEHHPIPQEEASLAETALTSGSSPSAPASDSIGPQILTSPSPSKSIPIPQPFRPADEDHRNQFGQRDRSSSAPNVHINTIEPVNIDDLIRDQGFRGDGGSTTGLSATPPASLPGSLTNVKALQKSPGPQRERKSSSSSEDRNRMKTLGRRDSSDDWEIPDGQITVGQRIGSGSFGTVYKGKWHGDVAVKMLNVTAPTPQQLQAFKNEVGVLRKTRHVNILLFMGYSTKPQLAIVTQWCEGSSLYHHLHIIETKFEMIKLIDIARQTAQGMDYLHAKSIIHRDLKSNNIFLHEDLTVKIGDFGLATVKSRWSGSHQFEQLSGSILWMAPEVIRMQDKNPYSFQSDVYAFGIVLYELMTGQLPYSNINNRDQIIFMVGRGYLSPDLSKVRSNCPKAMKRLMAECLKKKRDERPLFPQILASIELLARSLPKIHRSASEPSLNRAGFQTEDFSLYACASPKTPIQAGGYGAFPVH
UniProt P46736, whole entry, looked up: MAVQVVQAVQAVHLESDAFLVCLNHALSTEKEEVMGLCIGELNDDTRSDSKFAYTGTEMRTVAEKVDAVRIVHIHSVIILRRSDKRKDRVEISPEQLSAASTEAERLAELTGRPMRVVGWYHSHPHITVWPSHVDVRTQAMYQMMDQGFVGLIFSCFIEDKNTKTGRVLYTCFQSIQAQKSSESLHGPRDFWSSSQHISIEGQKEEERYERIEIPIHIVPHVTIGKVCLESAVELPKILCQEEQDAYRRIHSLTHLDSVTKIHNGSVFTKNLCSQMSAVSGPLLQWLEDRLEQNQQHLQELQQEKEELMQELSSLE
UniProt O95817, whole entry, looked up: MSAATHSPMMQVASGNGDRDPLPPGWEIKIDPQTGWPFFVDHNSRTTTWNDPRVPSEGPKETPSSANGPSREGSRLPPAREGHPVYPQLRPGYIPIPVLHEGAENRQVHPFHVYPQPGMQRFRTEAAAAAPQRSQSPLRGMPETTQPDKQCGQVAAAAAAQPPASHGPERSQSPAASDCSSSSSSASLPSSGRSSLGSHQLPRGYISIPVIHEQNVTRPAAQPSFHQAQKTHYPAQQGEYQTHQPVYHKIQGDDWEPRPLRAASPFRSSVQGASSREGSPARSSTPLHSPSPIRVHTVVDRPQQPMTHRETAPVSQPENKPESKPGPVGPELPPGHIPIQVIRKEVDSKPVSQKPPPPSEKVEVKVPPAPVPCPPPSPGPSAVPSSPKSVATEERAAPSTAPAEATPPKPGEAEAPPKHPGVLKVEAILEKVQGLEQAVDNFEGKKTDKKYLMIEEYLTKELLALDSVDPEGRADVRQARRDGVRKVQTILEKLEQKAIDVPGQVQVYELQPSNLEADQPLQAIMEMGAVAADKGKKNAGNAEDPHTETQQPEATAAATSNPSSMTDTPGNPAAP
UniProt Q9H0E9, whole entry, looked up: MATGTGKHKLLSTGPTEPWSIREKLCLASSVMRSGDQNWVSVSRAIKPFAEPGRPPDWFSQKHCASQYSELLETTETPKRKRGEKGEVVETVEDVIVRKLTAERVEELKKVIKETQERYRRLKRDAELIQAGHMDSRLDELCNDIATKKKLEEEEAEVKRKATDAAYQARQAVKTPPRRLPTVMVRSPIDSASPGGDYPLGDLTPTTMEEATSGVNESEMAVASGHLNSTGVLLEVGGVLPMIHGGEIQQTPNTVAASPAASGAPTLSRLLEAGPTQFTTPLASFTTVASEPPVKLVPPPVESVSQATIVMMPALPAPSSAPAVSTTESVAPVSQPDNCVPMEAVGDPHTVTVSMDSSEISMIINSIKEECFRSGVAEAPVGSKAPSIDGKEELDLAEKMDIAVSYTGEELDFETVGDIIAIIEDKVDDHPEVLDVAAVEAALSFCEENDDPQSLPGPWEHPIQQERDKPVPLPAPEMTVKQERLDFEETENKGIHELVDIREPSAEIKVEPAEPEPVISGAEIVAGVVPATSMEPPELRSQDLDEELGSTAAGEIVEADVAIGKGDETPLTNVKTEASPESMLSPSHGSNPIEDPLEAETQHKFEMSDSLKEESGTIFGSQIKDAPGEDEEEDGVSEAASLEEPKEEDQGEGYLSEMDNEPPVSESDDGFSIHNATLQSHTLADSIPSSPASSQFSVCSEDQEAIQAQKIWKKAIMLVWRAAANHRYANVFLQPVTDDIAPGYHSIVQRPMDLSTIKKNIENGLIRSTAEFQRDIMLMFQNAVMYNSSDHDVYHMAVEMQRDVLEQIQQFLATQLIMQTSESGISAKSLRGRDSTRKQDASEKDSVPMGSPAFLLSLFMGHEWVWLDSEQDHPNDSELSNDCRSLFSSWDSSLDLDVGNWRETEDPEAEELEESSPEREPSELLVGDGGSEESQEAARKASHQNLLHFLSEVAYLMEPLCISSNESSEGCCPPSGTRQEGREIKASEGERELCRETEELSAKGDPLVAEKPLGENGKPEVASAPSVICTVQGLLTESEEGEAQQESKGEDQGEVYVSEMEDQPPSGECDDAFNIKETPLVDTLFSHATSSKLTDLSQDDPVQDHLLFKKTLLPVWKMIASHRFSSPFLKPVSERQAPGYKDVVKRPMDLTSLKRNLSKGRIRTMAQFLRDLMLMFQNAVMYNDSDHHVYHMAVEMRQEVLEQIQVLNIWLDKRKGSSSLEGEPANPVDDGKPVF
UniProt Q96B45: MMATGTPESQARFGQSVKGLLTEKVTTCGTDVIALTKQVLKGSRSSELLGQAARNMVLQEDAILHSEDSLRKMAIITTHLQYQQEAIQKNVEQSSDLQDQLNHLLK
UniProt Q9HCU9: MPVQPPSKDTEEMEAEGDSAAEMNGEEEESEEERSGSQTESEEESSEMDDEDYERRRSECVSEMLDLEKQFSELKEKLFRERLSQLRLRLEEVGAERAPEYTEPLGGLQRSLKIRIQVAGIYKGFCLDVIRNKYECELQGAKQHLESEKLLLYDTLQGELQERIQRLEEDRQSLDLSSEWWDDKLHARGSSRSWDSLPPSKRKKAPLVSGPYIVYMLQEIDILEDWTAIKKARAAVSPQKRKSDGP
UniProt Q06187: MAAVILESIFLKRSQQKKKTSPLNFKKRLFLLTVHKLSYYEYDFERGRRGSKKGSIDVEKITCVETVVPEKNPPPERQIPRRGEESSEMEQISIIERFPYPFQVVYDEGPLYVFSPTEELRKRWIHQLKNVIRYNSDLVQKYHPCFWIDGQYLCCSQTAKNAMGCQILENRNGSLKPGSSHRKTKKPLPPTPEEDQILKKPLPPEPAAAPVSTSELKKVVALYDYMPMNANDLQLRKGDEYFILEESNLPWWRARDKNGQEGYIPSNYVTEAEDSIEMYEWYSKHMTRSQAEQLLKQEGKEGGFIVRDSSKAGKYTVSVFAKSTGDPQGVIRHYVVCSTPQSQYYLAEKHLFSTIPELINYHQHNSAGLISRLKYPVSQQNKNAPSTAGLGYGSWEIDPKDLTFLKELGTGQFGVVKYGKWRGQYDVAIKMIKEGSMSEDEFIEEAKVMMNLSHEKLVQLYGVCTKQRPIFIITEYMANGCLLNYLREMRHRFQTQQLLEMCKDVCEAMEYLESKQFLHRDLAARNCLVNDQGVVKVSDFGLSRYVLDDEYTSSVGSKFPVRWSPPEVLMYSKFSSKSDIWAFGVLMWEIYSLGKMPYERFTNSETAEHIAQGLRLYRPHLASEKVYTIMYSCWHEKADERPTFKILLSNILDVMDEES
UniProt Q07817, whole entry, looked up: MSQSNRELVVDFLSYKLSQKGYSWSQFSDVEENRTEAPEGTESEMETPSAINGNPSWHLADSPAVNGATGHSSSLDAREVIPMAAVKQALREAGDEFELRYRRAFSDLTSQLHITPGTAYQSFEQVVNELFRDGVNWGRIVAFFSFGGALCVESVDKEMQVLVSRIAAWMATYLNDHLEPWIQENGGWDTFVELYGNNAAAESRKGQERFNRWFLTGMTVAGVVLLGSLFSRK
UniProt Q8WUW1: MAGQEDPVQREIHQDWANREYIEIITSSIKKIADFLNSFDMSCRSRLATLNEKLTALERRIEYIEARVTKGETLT
UniProt Q96KE9: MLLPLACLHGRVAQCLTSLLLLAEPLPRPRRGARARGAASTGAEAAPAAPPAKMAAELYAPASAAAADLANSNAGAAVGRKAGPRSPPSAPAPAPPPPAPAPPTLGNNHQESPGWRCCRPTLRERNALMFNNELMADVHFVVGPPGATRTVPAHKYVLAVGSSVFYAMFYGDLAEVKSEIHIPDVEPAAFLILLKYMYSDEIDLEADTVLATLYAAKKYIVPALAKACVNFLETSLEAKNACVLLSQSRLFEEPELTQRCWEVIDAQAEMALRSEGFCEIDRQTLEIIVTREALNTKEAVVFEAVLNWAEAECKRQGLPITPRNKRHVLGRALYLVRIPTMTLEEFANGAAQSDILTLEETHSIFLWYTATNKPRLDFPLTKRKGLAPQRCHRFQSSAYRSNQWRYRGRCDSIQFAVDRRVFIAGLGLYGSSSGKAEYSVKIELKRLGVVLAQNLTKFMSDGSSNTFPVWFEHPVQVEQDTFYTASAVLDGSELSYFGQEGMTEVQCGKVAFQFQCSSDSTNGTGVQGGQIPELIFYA
UniProt Q5T5X7: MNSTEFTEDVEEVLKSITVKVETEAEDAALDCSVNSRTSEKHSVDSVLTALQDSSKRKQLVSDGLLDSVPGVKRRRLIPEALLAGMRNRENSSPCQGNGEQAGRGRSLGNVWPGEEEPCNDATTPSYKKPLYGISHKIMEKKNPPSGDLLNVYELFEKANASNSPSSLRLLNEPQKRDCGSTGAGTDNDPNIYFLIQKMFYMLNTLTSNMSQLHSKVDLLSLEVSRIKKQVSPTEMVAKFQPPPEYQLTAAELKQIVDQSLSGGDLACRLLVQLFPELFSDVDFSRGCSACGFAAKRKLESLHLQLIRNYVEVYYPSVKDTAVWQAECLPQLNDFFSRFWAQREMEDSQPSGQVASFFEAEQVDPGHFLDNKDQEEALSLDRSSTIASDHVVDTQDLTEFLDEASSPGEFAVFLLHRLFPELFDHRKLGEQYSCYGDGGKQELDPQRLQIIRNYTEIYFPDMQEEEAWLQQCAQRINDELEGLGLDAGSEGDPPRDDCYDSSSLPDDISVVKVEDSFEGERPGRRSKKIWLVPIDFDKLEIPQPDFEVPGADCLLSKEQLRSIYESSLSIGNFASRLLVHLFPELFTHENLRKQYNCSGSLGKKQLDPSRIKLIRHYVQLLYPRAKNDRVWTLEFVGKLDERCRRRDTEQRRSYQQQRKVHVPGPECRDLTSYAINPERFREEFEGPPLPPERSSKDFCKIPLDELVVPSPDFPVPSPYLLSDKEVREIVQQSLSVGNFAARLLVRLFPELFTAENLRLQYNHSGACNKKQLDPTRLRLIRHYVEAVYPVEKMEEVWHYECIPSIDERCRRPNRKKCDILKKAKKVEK
UniProt Q9Y276: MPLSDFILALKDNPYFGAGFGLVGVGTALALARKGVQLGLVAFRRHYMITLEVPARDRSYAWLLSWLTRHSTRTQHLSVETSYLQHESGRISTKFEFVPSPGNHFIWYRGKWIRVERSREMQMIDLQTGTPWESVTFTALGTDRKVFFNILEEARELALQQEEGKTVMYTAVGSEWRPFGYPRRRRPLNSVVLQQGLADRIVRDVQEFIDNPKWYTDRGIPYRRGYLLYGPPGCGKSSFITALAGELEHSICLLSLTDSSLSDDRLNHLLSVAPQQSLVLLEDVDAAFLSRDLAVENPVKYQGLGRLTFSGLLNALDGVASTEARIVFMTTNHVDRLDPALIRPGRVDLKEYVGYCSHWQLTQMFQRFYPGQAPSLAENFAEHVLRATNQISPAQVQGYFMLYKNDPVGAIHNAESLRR

Key:
Test in all cases: log2 fold change, soluble protein after heating vs DMSO (PISA); higher = thermal stabilisation; K562 lysate, 10 uM; active = over 0.2 and 3.5 SD of the protein, either way, in both replicates (recomputed)
[1] = compound: NCC(=O)Nc1ccc(-n2nc(C(F)(F)F)cc2-c2ccc3c(ccc4ccccc43)c2)cc1
Summary of the method: (§1)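 Values give the log-two fold change in thermal stability against solvent controls, from duplicates. Crude K562 extract at 1 mg/mL protein, made by dounce homogenisation in PBS pH 7.4 with 1 mM MgCl2, was treated with 10 μM compound for 30 min. After 3 min heating across 48°C-58°C, aliquots were pooled, adjusted to 0.5% NP-40 at 4°C and centrifuged at 21,000xg for 90 min. The supernatant was measured by TMTpro 16plex LC-MS/MS with channel sums equalised.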

[2] = compound: O=C(CCCCCCC(=O)Nc1ccccc1)NO [vorinostat]
Summary of the method: as §1

[3] = compound: O=C(O)c1ccc2c(c1)nc(Nc1cccc(Cl)c1)c1ccncc12 [silmitasertib]
Summary of the method: as §1

[4] = compound: O=C1NC(=O)C(c2cnc3ccccn23)=C1c1cn2c3c(cc(F)cc13)CN(C(=O)N1CCCCC1)CC2
Summary of the method: as §1

[5] = compound: c1cn2cc(-c3ccc4cn[nH]c4c3)nc(Nc3ccc(N4CCOCC4)cc3)c2n1 [entospletinib]
Summary of the method: as §1

Measured: log2 fold change

BIRC6, A0A3B3IUB9
inactive: [1] -0.142 | [2] 0.064 | [3] 0.007 | [4] -0.067 | [5] 0.048

BLM (UniProt P54132)
inactive: [1] 0.03 | [2] -0.056 | [3] 0.044 | [4] 0.003 | [5] -0.002

BCAT2 (UniProt O15382)
inactive: [1] 0.015 | [2] 0.162 | [3] -0.01 | [4] 0.014 | [5] 0.007

BCL9 (UniProt O00512)
inactive: [1] 0.09 | [2] 0.035 | [3] -0.023 | [4] -0.008

BANF1 (UniProt O75531)
inactive: [1] 0.069 | [2] 0.036 | [3] -0.113 | [4] 0.067 | [5] -0.051

BCAS3 isoform 8 (UniProt Q9H6U6)
inactive: [1] 0.082 | [2] -0.144 | [3] 0.063 | [4] 0.047 | [5] 0.043

BCAS2 (UniProt O75934)
inactive: [1] -0.004 | [2] -0.056 | [3] 0.007 | [4] 0.028 | [5] -0.127

BOLA2 (UniProt Q9H3K6)
inactive: [1] -0.085 | [2] 0.1 | [3] 0.039 | [4] -0.039 | [5] -0.015

BICD2 isoform 2 (UniProt Q8TD16)
inactive: [1] -0.002 | [2] 0.024 | [3] 0.011 | [4] -0.024 | [5] -0.049

BCL9L (UniProt Q86UU0)
inactive: [1] 0.057 | [2] 0.147 | [3] -0.042 | [4] -0.065

BRAP (UniProt Q7Z569)
inactive: [1] 0.034 | [2] -0.069 | [3] -0.016 | [4] -0.005 | [5] 0.015

BCL7A isoform 2 (UniProt Q4VC05)
inactive: [1] 0.019 | [2] 0.117 | [3] 0.07 | [4] -0.059 | [5] 0.044

BAG4 (UniProt O95429)
inactive: [1] -0.013 | [2] 0.03 | [3] -0.067 | [4] -0.025 | [5] 0.007

BLVRA (UniProt P53004)
inactive: [1] -0.022 | [2] -0.049 | [3] 0.014 | [4] -0.023 | [5] 0.023

BRAF (UniProt P15056)
inactive: [1] -0.001 | [2] -0.339 | [3] 0.061 | [4] -0.008 | [5] 0.037

BRCC3 (UniProt P46736)
inactive: [1] -0.033 | [2] 0.081 | [3] 0.01 | [4] 0.044 | [5] 0.019

BRF1 (UniProt Q92994)
inactive: [1] -0.018 | [2] -0.041 | [3] 0.06 | [4] -0.005 | [5] -0.126

BNIP1 (UniProt Q12981)
inactive: [1] -0.013 | [2] -0.049 | [3] 0.066 | [4] -0.026 | [5] -0.051

BLOC1S4 (UniProt Q9NUP1)
inactive: [1] -0.023 | [2] 0.007 | [3] 0.015 | [4] 0.008 | [5] 0

BARD1 (UniProt Q99728)
inactive: [1] 0.045 | [2] -0.058 | [3] 0.003 | [4] 0.061 | [5] -0.13

BPNT1 (UniProt O95861)
inactive: [1] -0.007 | [2] 0.037 | [3] -0.005 | [4] -0.02 | [5] 0.038

BAG3 (UniProt O95817)
inactive: [1] 0.005 | [2] 0.116 | [3] 0.013 | [4] 0.014 | [5] 0.01

BRD8 isoform 2 (UniProt Q9H0E9)
inactive: [1] -0.017 | [2] 0.005 | [3] 0.015 | [4] -0.017 | [5] 0.006

BORCS7 (UniProt Q96B45)
inactive: [1] -0.078 | [2] 0.149 | [3] 0.098 | [4] 0.049

BCL7B (UniProt Q9BQE9)
inactive: [1] 0.146 | [2] 0.123 | [3] -0.017 | [4] -0.015 | [5] 0

BAG6 isoform 3 (UniProt P46379)
inactive: [1] -0.037 | [2] 0.089 | [3] 0.036 | [4] 0.051 | [5] 0

BET1L (UniProt Q9NYM9)
inactive: [1] 0.073 | [2] 0.002 | [3] -0.031 | [4] 0.029 | [5] 0.017

BRMS1 (UniProt Q9HCU9)
inactive: [1] -0.007 | [2] 0.075 | [3] -0.012 | [4] -0.017 | [5] -0.026

BBC3 (UniProt Q9BXH1)
inactive: [1] -0.098 | [2] 0.206 | [3] -0.107 | [4] -0.006 | [5] -0.293

BEX2 isoform 2 (UniProt Q9BXY8)
inactive: [1] 0.256

BLOC1S3 (UniProt Q6QNY0)
inactive: [1] 0.045 | [2] -0.162 | [3] -0.037 | [4] 0 | [5] -0.042

14 successive records already listed, quoted:
BRF1 (UniProt Q92994)
inactive: [1] -0.018 | [2] -0.041 | [3] 0.06 | [4] -0.005 | [5] -0.126

BNIP1 (UniProt Q12981)
inactive: [1] -0.013 | [2] -0.049 | [3] 0.066 | [4] -0.026 | [5] -0.051

BLOC1S4 (UniProt Q9NUP1)
inactive: [1] -0.023 | [2] 0.007 | [3] 0.015 | [4] 0.008 | [5] 0

BARD1 (UniProt Q99728)
inactive: [1] 0.045 | [2] -0.058 | [3] 0.003 | [4] 0.061 | [5] -0.13

BPNT1 (UniProt O95861)
inactive: [1] -0.007 | [2] 0.037 | [3] -0.005 | [4] -0.02 | [5] 0.038

BAG3 (UniProt O95817)
inactive: [1] 0.005 | [2] 0.116 | [3] 0.013 | [4] 0.014 | [5] 0.01

BRD8 isoform 2 (UniProt Q9H0E9)
inactive: [1] -0.017 | [2] 0.005 | [3] 0.015 | [4] -0.017 | [5] 0.006

BORCS7 (UniProt Q96B45)
inactive: [1] -0.078 | [2] 0.149 | [3] 0.098 | [4] 0.049

BCL7B (UniProt Q9BQE9)
inactive: [1] 0.146 | [2] 0.123 | [3] -0.017 | [4] -0.015 | [5] 0

BAG6 isoform 3 (UniProt P46379)
inactive: [1] -0.037 | [2] 0.089 | [3] 0.036 | [4] 0.051 | [5] 0

BET1L (UniProt Q9NYM9)
inactive: [1] 0.073 | [2] 0.002 | [3] -0.031 | [4] 0.029 | [5] 0.017

BRMS1 (UniProt Q9HCU9)
inactive: [1] -0.007 | [2] 0.075 | [3] -0.012 | [4] -0.017 | [5] -0.026

BBC3 (UniProt Q9BXH1)
inactive: [1] -0.098 | [2] 0.206 | [3] -0.107 | [4] -0.006 | [5] -0.293

BEX2 isoform 2 (UniProt Q9BXY8)
inactive: [1] 0.256

The results go on:

BIRC6 (UniProt Q9NR09)
inactive: [1] -0.011 | [2] -0.07 | [3] 0.049 | [4] 0 | [5] -0.005

BTK isoform 2 (UniProt Q06187)
inactive: [3] 0.066 | [4] 0.012 | [5] 0.3
active: [1] 0.439 | [2] -0.322

BMP2K (UniProt Q9NSY1)
inactive: [1] 0.003 | [2] -0.252 | [3] 0.274 | [4] 0.751 | [5] 0.185

BCL2L1 (UniProt Q07817)
inactive: [1] -0.025 | [2] 0.121 | [3] 0.023 | [4] -0.026 | [5] -0.001

BACH1 (UniProt O14867)
inactive: [1] 0.053 | [2] -0.08 | [3] 0.002 | [4] -0.005 | [5] -0.009

BOP1 (UniProt Q14137)
inactive: [1] 0.006 | [2] -0.173 | [3] -0.013 | [4] 0.022 | [5] -0.015

BRK1 isoform 2 (UniProt Q8WUW1)
inactive: [1] -0.025 | [2] 0.021 | [3] -0.032 | [4] 0.038 | [5] 0.025

BTBD6 (UniProt Q96KE9)
inactive: [1] 0.193 | [2] 0.254 | [3] -0.148 | [4] 0.412 | [5] 0.055

B4GALT7 (UniProt Q9UBV7)
inactive: [1] -0.21 | [2] 0.35 | [3] -0.166 | [4] -0.075 | [5] 0.04

BIRC2 (UniProt Q13490)
inactive: [1] -0.009 | [2] 0 | [3] 0.001 | [4] -0.019 | [5] 0.022

BCCIP isoform 2 (UniProt Q9P287)
inactive: [1] -0.035 | [2] -0.026 | [3] 0.011 | [4] -0.03 | [5] 0.025

BRAT1 (UniProt Q6PJG6)
active: [2] -0.32
inactive: [1] 0.015 | [3] -0.002 | [4] -0.013 | [5] 0.004

BSG (UniProt P35613)
inactive: [1] 0.012 | [2] 0.079 | [3] -0.056 | [4] -0.047 | [5] -0.002

BAIAP2L1 (UniProt Q9UHR4)
inactive: [1] 0.008 | [2] 0.068 | [3] -0.038 | [4] -0.027 | [5] -0.001

BCAT1 (UniProt P54687)
inactive: [1] 0.017 | [2] 0.116 | [3] -0.009 | [4] 0.006 | [5] 0.011

BLOC1S6 (UniProt Q9UL45)
inactive: [1] -0.022 | [3] 0.004 | [4] 0.011 | [5] 0.046
active: [2] -0.386

B4GALT3 (UniProt O60512)
inactive: [1] -0.197 | [2] 0.049 | [3] -0.029 | [4] -0.055 | [5] -0.15

BICD1 (UniProt Q96G01)
inactive: [1] -0.058 | [2] -0.003 | [3] -0.024 | [4] 0.01 | [5] 0.057

BCCIP (UniProt Q9P287)
inactive: [1] -0.04 | [2] -0.185 | [3] -0.006 | [4] -0.065 | [5] 0.003

BEND3 (UniProt Q5T5X7)
inactive: [1] 0.03 | [2] -0.179 | [3] 0.129 | [4] -0.076 | [5] 0.072

BCS1L (UniProt Q9Y276)
inactive: [1] 0.005 | [2] 0.201 | [3] 0.002 | [4] -0.046 | [5] -0.009

BAG5 isoform 2 (UniProt Q9UL15)
inactive: [1] 0.028 | [2] -0.159 | [3] 0.016 | [4] 0.005 | [5] -0.007

BPTF (UniProt Q12830)
inactive: [1] 0.037 | [2] -0.175 | [3] -0.037 | [4] -0.028 | [5] -0.033
